Data on four molecules can be found in paper PMC9489711.

Protein sequences, listed by entry. Tags and fused reporters are not part of them.
UniProt Q9NQB0: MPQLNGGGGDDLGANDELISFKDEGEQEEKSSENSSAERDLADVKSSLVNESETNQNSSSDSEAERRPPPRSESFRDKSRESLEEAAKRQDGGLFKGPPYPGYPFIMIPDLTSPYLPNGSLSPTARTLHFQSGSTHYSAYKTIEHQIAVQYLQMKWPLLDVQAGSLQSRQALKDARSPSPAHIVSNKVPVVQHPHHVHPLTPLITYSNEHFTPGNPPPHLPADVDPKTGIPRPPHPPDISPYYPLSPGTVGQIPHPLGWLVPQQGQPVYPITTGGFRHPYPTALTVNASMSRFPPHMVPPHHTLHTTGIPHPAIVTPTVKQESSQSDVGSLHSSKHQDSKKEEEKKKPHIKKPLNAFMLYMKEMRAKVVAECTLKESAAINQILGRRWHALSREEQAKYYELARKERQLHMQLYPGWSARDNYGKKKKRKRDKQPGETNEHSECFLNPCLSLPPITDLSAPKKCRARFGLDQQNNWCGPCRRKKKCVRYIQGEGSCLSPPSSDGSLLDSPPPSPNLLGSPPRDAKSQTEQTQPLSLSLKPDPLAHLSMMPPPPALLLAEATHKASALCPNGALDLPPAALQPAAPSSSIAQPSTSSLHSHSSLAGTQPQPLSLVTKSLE

Results are given in words; binding and its absence hold for the method and conditions named. Binding seen in cells or lysates may run through a third protein. Some binding calls cover weakened binding; strength is not graded here. For some of these results: Sequences can lack the tags named with a protein.

For assay [1], the target named is Flag-tagged ZIC5 (zinc finger of the cerebellum 5) (human) (UniProt Q96T25). Put plainly: co-IP; 293T cells with exogenous expression of β-catenin or TCF4, tested with ZIC5 (Supplementary Fig. 3D).
The target is the same in assay [2]. Put plainly: co-IP; C4-2B and 22RV1 cells transfected with Flag-tagged ZIC5 or control vector; nuclear proteins; primary antibody 4 h at 4 °C, protein A/G beads overnight, western blot. For orientation: Immunoblotting shows a protein as a band on a membrane.
Assay [3] concerns the target T1, Flag-tagged ZIC5 (zinc finger of the cerebellum 5) (human), Q96T25.
T1 chain: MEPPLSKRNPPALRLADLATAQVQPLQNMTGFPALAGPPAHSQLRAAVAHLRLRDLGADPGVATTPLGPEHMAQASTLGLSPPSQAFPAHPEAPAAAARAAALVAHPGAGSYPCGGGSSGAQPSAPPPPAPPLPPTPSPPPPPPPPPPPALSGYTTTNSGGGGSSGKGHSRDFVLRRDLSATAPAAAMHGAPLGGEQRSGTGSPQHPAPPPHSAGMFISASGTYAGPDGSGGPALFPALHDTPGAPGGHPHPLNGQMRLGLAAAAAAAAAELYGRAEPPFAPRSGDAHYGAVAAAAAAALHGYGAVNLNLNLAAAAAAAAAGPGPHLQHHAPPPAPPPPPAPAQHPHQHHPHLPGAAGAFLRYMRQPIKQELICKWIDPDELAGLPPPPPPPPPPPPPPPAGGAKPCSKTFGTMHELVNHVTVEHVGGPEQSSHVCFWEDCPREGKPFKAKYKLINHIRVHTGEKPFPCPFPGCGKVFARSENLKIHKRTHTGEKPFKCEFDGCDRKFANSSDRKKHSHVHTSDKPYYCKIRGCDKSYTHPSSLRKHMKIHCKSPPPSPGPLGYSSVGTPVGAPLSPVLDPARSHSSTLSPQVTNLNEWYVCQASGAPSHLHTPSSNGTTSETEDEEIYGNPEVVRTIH
The description is as above. To be noted: remark: other sources report otherwise.

In assay [4] the target is T1, Flag-tagged ZIC5 (zinc finger of the …). Put plainly: co-IP; 293T cells with exogenous expression of β-catenin or TCF4, tested with ZIC5 (Supplementary Fig. 3D). To be noted: remark: other sources report otherwise.

In the case of “TCF4 (exogenously expressed in 293T) (from UniProt Q9NQB0 1-619)”, the binding result in assay [1] is “binds”.
With “transcription factor 4 (TCF4) (endogenous) (from UniProt Q9NQB0 1-619)”, the binding entry in assay [2] is “binds”.

B1: β-catenin (endogenous), P35222 1-781 (protein)
chain: MATQADLMELDMAMEPDRKAAVSHWQQQSYLDSGIHSGATTTAPSLSGKGNPEEEDVDTSQVLYEWEQGFSQSFTQEQVADIDGQYAMTRAQRVRAAMFPETLDEGMQIPSTQFDAAHPTNVQRLAEPSQMLKHAVVNLINYQDDAELATRAIPELTKLLNDEDQVVVNKAAVMVHQLSKKEASRHAIMRSPQMVSAIVRTMQNTNDVETARCTAGTLHNLSHHREGLLAIFKSGGIPALVKMLGSPVDSVLFYAITTLHNLLLHQEGAKMAVRLAGGLQKMVALLNKTNVKFLAITTDCLQILAYGNQESKLIILASGGPQALVNIMRTYTYEKLLWTTSRVLKVLSVCSSNKPAIVEAGGMQALGLHLTDPSQRLVQNCLWTLRNLSDAATKQEGMEGLLGTLVQLLGSDDINVVTCAAGILSNLTCNNYKNKMMVCQVGGIEALVRTVLRAGDREDITEPAICALRHLTSRHQEAEMAQNAVRLHYGLPVVVKLLHPPSHWPLIKATVGLIRNLALCPANHAPLREQGAIPRLVQLLVRAHQDTQRRTSMGGTQQQFVEGVRMEEIVEGCTGALHILARDVHNRIVIRGLNTIPLFVQLLYSPIENIQRVAAGVLCELAQDKEAAEAIEAEGATAPLTELLHSRNEGVATYAAAVLFRMSEDKPQDYKKRLSVELTSSLFRTEPMAWNETADLGLDIGAQGEPLGYRQDDPSYRSFHSGGYGQDALGMDPMMEHEMGGHHPGADYPVDGLPDLGHAQDLMDGLPPGDSNQLAWFDTDL
For B1, the binding result in assay [3] is reported as “binds”.

B2: β-catenin (exogenously expressed in 293T), P35222 1-781 (protein)
chain: B1 chain
With B2, the binding result in assay [4] is reported as “binds”.
